Where a chain is given by its changes, count along the chain named. These are yes or no findings as the source states them, for the method shown. In cells and extracts the contact can be indirect. A yes stands for co-enrichment or nearness to the bait. Other partners may have been found. For some assays here: Where a sequence is shown, tags or fusion partners need not be part of it.
T1: 2-CysPRXA C54S (pseudo-reduced variant) (Arabidopsis) (UniProt Q96291)
T1 sequence: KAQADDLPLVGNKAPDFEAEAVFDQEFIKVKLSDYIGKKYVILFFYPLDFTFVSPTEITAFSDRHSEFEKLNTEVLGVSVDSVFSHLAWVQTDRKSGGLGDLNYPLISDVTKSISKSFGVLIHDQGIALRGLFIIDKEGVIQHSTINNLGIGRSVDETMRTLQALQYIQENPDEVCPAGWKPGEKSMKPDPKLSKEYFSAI

T2: 2-cysteine peroxiredoxin A, wild type (2-CysPRXA WT) (Arabidopsis) (UniProt Q96291)
T2 sequence: T1 sequence with S54C

B1: Arginase 2 (protein, UniProt Q9ZPF5 27-344)
chain: PTSLVETGQNRVIDASLTLIRERAKLKGELVRLIGGAKATTALLGVPLGHNSSFLEGPALAPPHVREAIWCGSTNSTTEEGKELKDPRVLSDVGDIPVQEIREMGVDDDRLMKVVSESVKLVMEEEPLRPLVIGGDHSISYPVVRAVSEKLGGPVDILHLDAHPDIYDRFEGNYYSHASSFARIMEGGYARRLLQVGIRSINKEGREQGKRFGVEQYEMRTFSKDRQMLENLKLGEGVKGVYISIDVDCLDPGFAHGVSHFEPGGLSFRDVLNILHNLQGDLVGADVVEYNPQRDTADDMTAMVAAKFVRELAAKMSK
B2: Biotin carboxylase (protein, UniProt O04983 72-537)
chain: SGGDKILVANRGEIAVRVIRTAHEMGIPCVAVYSTIDKDALHVKLADEAVCIGEAPSNQSYLVIPNVLSAAISRGCTMLHPGYGFLSENALFVEMCRDHGINFIGPNPDSIRVMGDKATARETMKNAGVPTVPGSDGLLQSTEEAVRVANEIGFPVMIKATAGGGGRGMRLAKEPGEFVKLLQQAKSEAAAAFGNDGCYLEKFVQNPRHIEFQVLADKFGNVVHFGERDCSIQRRNQKLLEEAPSPALTAELRKAMGDAAVAAAASIGYIGVGTVEFLLDERGSFYFMEMNTRIQVEHPVTEMIYSVDLIEEQIRVAMGEKLRYKQEDIVLRGHSIECRINAEDPFKGFRPGPGRITSYLPSGGPFVRMDSHVYSDYVVPPSYDSLLGKLIVWAPTREKAIERMKRALNDTIITGVPTTINYHKLILDVEDFKNGKVDTAFIVKHEEELAEPQEIVAVKDLTNATV
B3: GDSL esterase/lipase ESM1 (protein, UniProt Q9LJG3 29-392)
chain: GEGVPNVALFTFGDSYYDAGNKVFLSQRKDLPQTYWPYGKSRDYPNGKFSDGHIVPDFIADFISIPNGVLPPVLKPGVDISRGVSFAVADASILGAPVESMTLNQQVVKFKNMKSNWNDSYIEKSLFMIYIGTEDYLNFTKANPNADASAQQAFVTNVINRLKNDIKLLYSLGASKFVVQLLAPLGCLPIVRQEYKTGNECYELLNDLAKQHNGKIGPMLNEFAKISTSPYGFQFTVFDFYNAVLRRIATGRSLNYRFFVTNTSCCGVGTHNAYGCGKGNVHSKLCEYQRSYFFFDGRHNTEKAQEEMAHLLYGADPDVVQPMTVRELIVYPTGETMREYWEPNNLAIRRRPSRDFYLGLAAYY
B4: Myrosinase 2 (protein, UniProt Q9C5C2 29-547)
chain: KPEEEITCEENVPFTCSQTDRFNKQDFESDFIFGVASSAYQIEGGRGRGLNVWDGFTHRYPEKGGADLGNGDTTCDSYRTWQKDLDVMEELGVKGYRFSFAWSRILPKGKRSRGINEDGINYYSGLIDGLIARNITPFVTLFHWDLPQSLQDEYEGFLDRTIIDDFKDYADLCFERFGDRVKHWITINQLFTVPTRGYALGTDAPGRCSQWVDKRCYGGDSSTEPYIVAHNQLLAHATVVDLYRTRYKYQGGKIGPVMITRWFLPYDDTLESKQATWRAKEFFLGWFMEPLTKGKYPYIMRKLVGNRLPKFNSTEARLLKGSYDFLGLNYYVTQYAHALDPSPPEKLTAMTDSLANLTSLDANGQPPGPPFSKGSYYHPRGMLNVMEHFKTKYGDPLIYVTENGFSTSGGPIPFTEAFHDYNRIDYLCSHLCFLRKAIKEKRVNVKGYFVWSLGDNYEFCNGYTVRFGLSYVDFNNVTADRDLKASGLWYQSFLRDTTKNQDILRSSLPFKNGDRKSLT
B5: Soluble pyrophosphatase 6 (protein, UniProt Q9LXC9 67-300)
chain: VQEEGPAESLDYRVFFLDGSGKKVSPWHDIPLTLGDGVFNFIVEIPKESKAKMEVATDEDFTPIKQDTKKGKLRYYPYNINWNYGLLPQTWEDPSHANSEVEGCFGDNDPVDVVEIGETQRKIGDILKIKPLAALAMIDEGELDWKIVAISLDDPKAHLVNDVEDVEKHFPGTLTAIRDWFRDYKIPDGKPANRFGLGDKPANKDYALKIIQETNESWAKLVKRSVDAGDLSLY
B6: BCCP of acetyl-CoA carboxylase 1 (protein, UniProt Q42533 83-280)
chain: SAEGKEKNSLKESSASSPELATEESISEFLTQVTTLVKLVDSRDIVELQLKQLDCELVIRKKEALPQPQAPASYVMMQQPNQPSYAQQMAPPAAPAAAAPAPSTPASLPPPSPPTPAKSSLPTVKSPMAGTFYRSPAPGEPPFIKVGDKVQKGQVLCIVEAMKLMNEIESDHTGTVVDIVAEDGKPVSLDTPLFVVQP
B7: Protein COLD-REGULATED 15A (protein, UniProt Q42512 41-139)
chain: SQRKKSLIYAAKGDGNILDDLNEATKKASDFVTDKTKEALADGEKAKDYVVEKNSETADTLGKEAEKAAAYVEEKGKEAANKAAEFAEGKAGEAKDATK
B8: Protease Do-like 1 (protein, UniProt O22609 106-439)
chain: FVVSTPKKLQTDELATVRLFQENTPSVVYITNLAVRQDAFTLDVLEVPQGSGSGFVWDKQGHIVTNYHVIRGASDLRVTLADQTTFDAKVVGFDQDKDVAVLRIDAPKNKLRPIPVGVSADLLVGQKVFAIGNPFGLDHTLTTGVISGLRREISSAATGRPIQDVIQTDAAINPGNSGGPLLDSSGTLIGINTAIYSPSGASSGVGFSIPVDTVGGIVDQLVRFGKVTRPILGIKFAPDQSVEQLGVSGVLVLDAPPSGPAGKAGLQSTKRDGYGRLVLGDIITSVNGTKVSNGSDLYRILDQCKVGDEVTVEVLRGDHKEKISVTLEPKPDES
B9: Protein COLD-REGULATED 15B (protein, UniProt Q9SIN5 42-141)
chain: AQRKKSLIYAVKSDGNILDDLNEATKKASDFVTDKTKEALADGEKTKDYIVEKTIEANETATEEAKKALDYVTEKGKEAGNKAAEFVEGKAEEAKNATKS
B10: Glutathione S-transferase F8 (protein, UniProt Q96266 50-263)
chain: ASIKVHGVPMSTATMRVLATLYEKDLQFELIPVDMRAGAHKQEAHLALNPFGQIPALEDGDLTLFESRAITQYLAEEYSEKGEKLISQDCKKVKATTNVWLQVEGQQFDPNASKLAFERVFKGMFGMTTDPAAVQELEGKLQKVLDVYEARLAKSEFLAGDSFTLADLHHLPAIHYLLGTDSKVLFDSRPKVSEWIKKISARPAWAKVIDLQKQ
B11: Malate dehydrogenase (AT3G47520) (protein, UniProt Q9SN86 81-403)
chain: ASYKVAVLGAAGGIGQPLSLLIKMSPLVSTLHLYDIANVKGVAADLSHCNTPSQVRDFTGPSELADCLKDVNVVVIPAGVPRKPGMTRDDLFNINANIVKTLVEAVAENCPNAFIHIISNPVNSTVPIAAEVLKKKGVYDPKKLFGVTTLDVVRANTFVSQKKNLKLIDVDVPVIGGHAGITILPLLSKTKPSVNFTDEEIQELTVRIQNAGTEVVDAKAGAGSATLSMAYAAARFVESSLRALDGDGDVYECSFVESTLTDLPFFASRVKIGKNGLEAVIESDLQGLTEYEQKALEALKVELKASIDKGVAFANKPAAAAAN
B12: 30S ribosomal protein S17 (protein, UniProt P16180 50-149)
chain: MKTMQGRVVCATSDKTVAVEVVRLAPHPKYKRRVRMKKKYQAHDPDNQFKVGDVVRLEKSRPISKTKSFVALPVIARAARKAEAGGDELLGLPLESQQPA
B13: Probable protein phosphatase 2C 62 (protein, UniProt Q93V88 1-724)
chain: MADHLILSLQAPPFLIFPCSLHRSWRFPGGIRYSVPEFRLSSQLQLANSISPSKSSASSSSPPENSAPEKFDLVSSTQLKDGSHVFRFGDASEIEKYLEAEEKARCVEVETQNAKIAEEASEVSRKQKKLVSSIIETSTEKEETAAPSDLSNVIKIKDRKRVRSPTKKKKETVNVSRSEDKIDAKSASVSNLSSIVSVAEAIPISSTEEEAVVEKEITAKSYNVEPLSSEAMKKVSVNKIGDCETNGYQENRMEVQARPSLSTQQEITPVSTIEIDDNLDVTEKPIEAEENLVAEPTATDDLSPDELLSTSEATHRSVDEIAQKPVIDTSEENLLNTFEAEENPVVEPTATAAVSSDELISTSEATRHSVDEIAQKPIIDTSEKNPMETFVEPEAVHSSVDESTEKLVVVTSDVENDGENVASTTEDEITVRDTITDSGSISNNDDTKVEDLQLPVPETASLEPIKAASGREELVSKAFYLDSGFASLQSPFKALAGREDAYFISHHNWIGIADGVSQWSFEGINKGMYAQELMSNCEKIISNETAKISDPVQVLHRSVNETKSSGSSTALIAHLDNNELHIANIGDSGFMVIRDGTVLQNSSPMFHHFCFPLHITQGCDVLKLAEVYHVNLEEGDVVIAATDGLFDNLYEKEIVSIVCGSLKQSLEPQKIAELVAAKAQEVGRSKTERTPFADAAKEEGYNGHKGGKLDAVTVIISFVKIVST
B14: Phosphoglucan phosphatase LSF1 (protein, UniProt F4J117 62-591)
chain: AMSSSSTPFKMNLNEYMVTLEKPLGIRFALSADGKIFVHAIKKGSNAEKARIIMVGDTLKKASDSSGGTLVEIKDFGDTKKMLVEKTGSFSLVLERPFSPFPIQYLLHLSDLDLLYNRGRVSFVTWNKNLLSSNLRASSQGSGNSGYAAFSSKFFTPQGWKLLNRQSNSFQSGTKKNILSPPISPLVSVFSEDVPGDGEWGYGNFPLEEYIKALDRSKGELSYNHALGMRYSKITEQIYVGSCIQTEEDVENLSEAGITAILNFQGGTEAQNWGIDSQSINDACQKSEVLMINYPIKDADSFDLRKKLPLCVGLLLRLLKKNHRVFVTCTTGFDRSSACVIAYLHWMTDTSLHAAYSFVTGLHACKPDRPAIAWATWDLIAMVDDGKHDGTPTHSVTFVWNGHEGEEVLLVGDFTGNWKEPIKATHKGGPRFETEVRLTQGKYYYKYIINGDWRHSATSPTERDDRGNTNNIIVVGDVANVRPTIQQPRKDANIIKVIERVLTESERFRLAKAARCIAFSVCPIRLCPKS

Molecular target: T1, 2-CysPRXA C54S (pseudo-reduced variant) (Arabidopsis)
Assay: affinity purification with mass spectrometry; reducing: his6-tagged 2-CysPRXA variant (3 mg) on Ni-NTA-agarose pretreated with 10 mM DTT; leaf extract (50 mg protein) made with 10 mM DTT; 50 mM HEPES pH 8.0, 1 h, 4 °C; stepwise elution with 1 M NaCl, 10 mM DTT, 250 mM imidazole; hits not found on the column without 2-CysPRX; only the target purified

binding | Binder
binds | B1
binds | B2
binds | B3
binds | B4
binds | B5
binds | B6
binds | B7
binds | B8
binds | B9
binds | B10

Molecular target: T2, 2-cysteine peroxiredoxin A, wild type (2-CysPRXA WT) (Arabidopsis)
Assay: as above

binding | Binder
binds | B11
binds | B12
binds | B13
binds | B14
